From patent US20110142849A1
Results are given in words; binding and its absence hold for the method and conditions named. Binding calls can cover weak binding; strength is not graded here. For some of these results: Binding seen in cells or lysates may run through a third protein.

By UniProt entry, the sequences of proteins in these tests, tags left out. Where a name states a change or a piece, a line headed by the entry shows the natural chain unless it says otherwise.
UniProt Q8NBP7: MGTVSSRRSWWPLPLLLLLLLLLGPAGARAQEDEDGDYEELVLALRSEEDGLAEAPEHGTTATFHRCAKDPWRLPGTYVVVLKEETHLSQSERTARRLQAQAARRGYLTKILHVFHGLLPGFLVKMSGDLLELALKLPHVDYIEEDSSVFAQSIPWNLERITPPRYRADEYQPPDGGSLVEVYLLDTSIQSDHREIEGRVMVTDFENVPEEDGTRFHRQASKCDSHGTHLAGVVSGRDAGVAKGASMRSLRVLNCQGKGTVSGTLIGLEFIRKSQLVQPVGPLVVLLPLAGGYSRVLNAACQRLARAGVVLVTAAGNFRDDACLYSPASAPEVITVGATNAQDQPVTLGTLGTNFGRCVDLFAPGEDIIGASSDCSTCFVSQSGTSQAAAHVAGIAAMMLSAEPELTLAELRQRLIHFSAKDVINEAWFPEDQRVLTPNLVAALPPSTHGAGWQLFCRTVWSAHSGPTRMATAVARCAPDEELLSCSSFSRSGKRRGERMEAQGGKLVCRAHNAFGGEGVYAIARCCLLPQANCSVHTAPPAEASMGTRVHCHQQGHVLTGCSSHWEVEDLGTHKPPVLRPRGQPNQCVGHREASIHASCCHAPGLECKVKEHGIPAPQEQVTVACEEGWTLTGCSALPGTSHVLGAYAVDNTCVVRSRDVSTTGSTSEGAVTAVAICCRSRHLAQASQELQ

Columns and labels:
[1] = target: recombinant human Pcsk9 (aa 31-692) with C-terminal his6 tag (human) (UniProt Q8NBP7); experiment: specificity ELISA on coated antigen (88 ng per well), antibody at 2 µg/mL, ABS650
[2] = target: recombinant human Pcsk9 (aa 31-692) with C-terminal his6 tag (human) (UniProt Q8NBP7); experiment: epitope mapping, FIG. 7
[3] = target: recombinant human Pcsk9 (aa 31-692) with C-terminal his6 tag (human) (UniProt Q8NBP7); experiment: ELISA on Pcsk9-HIS
[4] = target: recombinant human Pcsk9 (aa 31-692) with C-terminal his6 tag (human) (UniProt Q8NBP7); experiment: co-immunoprecipitation with 5P20, blot
[5] = target: recombinant human Pcsk9 (aa 31-692) with C-terminal his6 tag (human) (UniProt Q8NBP7); experiment: ELISA
[6] = target: recombinant human Pcsk9 (aa 31-692) with C-terminal his6 tag (human) (UniProt Q8NBP7); experiment: ELISA, Pcsk9 captured by its HIS tag on a Ni plate
[7] = target: recombinant human Pcsk9 (aa 31-692) with C-terminal his6 tag (human) (UniProt Q8NBP7); experiment: specificity ELISA on a panel of human and mouse antigens

Measured: binding

B1: NVP-LFU720 (antibody, V domains shown)
VH: EVQLQQSGAELMKPGASVKLSCTASGFNIKDMYMSWVRQRPEQGLEWIGRIDPANGHTNYDPKFQAKATITTDTSSKTAYLHLSSLTSEDTAVYYCARSYYYYAMDYWGQGTSVTVSS
VL: QIVLTQSPAIMSASPGEKVTMTCSASSSVSYMHWYQQKPGSSPRLWIYLTFNLASGVPARFSGSGSGTSYSLSISSMEAEDAATYYCLQWSSDPPTFGSGTKLEIK
binds: [1] | [2] | [3] | [4] | [5] | [6] | [7]
